According to publication PMC11679068, “Affinity Peptide-Based Circularly Permuted Fluorescent Protein Biosensors for Non-Small Cell Lung Cancer Diagnosis” (Sensors (Basel, Switzerland), 2024):
Results are given in words; binding and its absence hold for the method and conditions named. Some results given as binding are weak or reduced against the parent protein; the word gives no strength.

B1: synthetic peptide C2 (peptide)
peptide: YGVSALSSYVSC
notes: dodecapeptide C2 from phage display, synthesized; source: synthetic peptide (Fmoc solid phase, Synpeptide Co., HPLC purified)
B2: synthetic peptide C3 (peptide)
peptide: WSPSALLPSSVT
notes: dodecapeptide C3 from phage display, synthesized; source: synthetic peptide (Fmoc solid phase, Synpeptide Co., HPLC purified)
B3: synthetic peptide C4 (peptide)
peptide: HHRLTRSMQLMM
notes: dodecapeptide C4 from phage display, synthesized; source: synthetic peptide (Fmoc solid phase, Synpeptide Co., HPLC purified)

These binders were tested against T1, carcinoembryonic antigen (UniProt P06731 35-685) (assay: ELISA; protein (100 ug/mL) coated on 96-well plates, BSA blocked; 10^10 phage particles per well, 37 C, 1 h; detection with HRP anti-M13 antibody, OPD; only the target purified).
T1 construct: carcinoembryonic antigen (CEA), serum tumor marker; also called CEA; CAE
T1 sequence (looked up): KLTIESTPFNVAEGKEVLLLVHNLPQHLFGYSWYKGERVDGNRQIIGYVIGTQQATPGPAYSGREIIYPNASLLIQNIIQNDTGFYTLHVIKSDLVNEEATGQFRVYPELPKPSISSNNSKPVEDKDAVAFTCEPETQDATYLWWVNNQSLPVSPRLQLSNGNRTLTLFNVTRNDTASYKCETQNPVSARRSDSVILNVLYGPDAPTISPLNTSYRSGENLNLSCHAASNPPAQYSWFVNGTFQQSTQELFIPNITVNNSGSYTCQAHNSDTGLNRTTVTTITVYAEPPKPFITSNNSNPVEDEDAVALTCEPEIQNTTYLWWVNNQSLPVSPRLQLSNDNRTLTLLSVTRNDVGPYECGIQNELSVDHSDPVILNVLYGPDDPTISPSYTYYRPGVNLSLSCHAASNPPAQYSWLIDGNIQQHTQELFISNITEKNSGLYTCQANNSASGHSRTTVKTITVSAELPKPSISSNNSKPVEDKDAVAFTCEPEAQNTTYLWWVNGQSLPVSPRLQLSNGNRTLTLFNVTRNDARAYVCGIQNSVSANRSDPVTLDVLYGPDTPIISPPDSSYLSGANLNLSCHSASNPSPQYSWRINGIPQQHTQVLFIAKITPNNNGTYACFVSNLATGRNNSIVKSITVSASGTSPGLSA

Row | Binder | binding
1 | B1 | binds
2 | B2 | binds
3 | B3 | binds

What follows are binders tested against T1, carcinoembryonic antigen (assay: phage display panning; target protein coated on 96-well plates (100 ug/mL, bicarbonate buffer pH 8.6, 4 C overnight), BSA blocked; Ph.D.-12 library 60 min at room temperature; TBST washes; elution with glycine-HCl pH 2.2; three rounds; 30 colonies sequenced; only the target purified).

Row | Binder | binding
4 | VVGRAMAYSTIP [phage-displayed peptide C1 (…)] | binds
5 | DVTWRTSYSSDS [phage-displayed peptide C10] | binds
6 | WSLNSGMFGYQW [phage-displayed peptide C11] | binds
7 | DRGSGVPADELW [phage-displayed peptide C12] | binds
8 | SWFQSDNTLRRP [phage-displayed peptide C13] | binds
9 | B1 | binds
10 | B2 | binds
11 | B3 | binds
12 | FQAPYWLTLGGE [phage-displayed peptide C5] | binds
13 | DVSPSRNQDRSP [phage-displayed peptide C6] | binds
14 | VNPFHKFTAGNQ [phage-displayed peptide C7] | binds
15 | ALNGVKGPLRMD [phage-displayed peptide C8] | binds
16 | FPRLTALAGPWP [phage-displayed peptide C9] | binds
